Results are given in words; binding and its absence hold for the method and conditions named. Binding seen in cells or lysates may run through a third protein.
Biological target: T1, endogenous NLRP6 (human (endogenous in LN229)) (UniProt P59044)
T1 sequence: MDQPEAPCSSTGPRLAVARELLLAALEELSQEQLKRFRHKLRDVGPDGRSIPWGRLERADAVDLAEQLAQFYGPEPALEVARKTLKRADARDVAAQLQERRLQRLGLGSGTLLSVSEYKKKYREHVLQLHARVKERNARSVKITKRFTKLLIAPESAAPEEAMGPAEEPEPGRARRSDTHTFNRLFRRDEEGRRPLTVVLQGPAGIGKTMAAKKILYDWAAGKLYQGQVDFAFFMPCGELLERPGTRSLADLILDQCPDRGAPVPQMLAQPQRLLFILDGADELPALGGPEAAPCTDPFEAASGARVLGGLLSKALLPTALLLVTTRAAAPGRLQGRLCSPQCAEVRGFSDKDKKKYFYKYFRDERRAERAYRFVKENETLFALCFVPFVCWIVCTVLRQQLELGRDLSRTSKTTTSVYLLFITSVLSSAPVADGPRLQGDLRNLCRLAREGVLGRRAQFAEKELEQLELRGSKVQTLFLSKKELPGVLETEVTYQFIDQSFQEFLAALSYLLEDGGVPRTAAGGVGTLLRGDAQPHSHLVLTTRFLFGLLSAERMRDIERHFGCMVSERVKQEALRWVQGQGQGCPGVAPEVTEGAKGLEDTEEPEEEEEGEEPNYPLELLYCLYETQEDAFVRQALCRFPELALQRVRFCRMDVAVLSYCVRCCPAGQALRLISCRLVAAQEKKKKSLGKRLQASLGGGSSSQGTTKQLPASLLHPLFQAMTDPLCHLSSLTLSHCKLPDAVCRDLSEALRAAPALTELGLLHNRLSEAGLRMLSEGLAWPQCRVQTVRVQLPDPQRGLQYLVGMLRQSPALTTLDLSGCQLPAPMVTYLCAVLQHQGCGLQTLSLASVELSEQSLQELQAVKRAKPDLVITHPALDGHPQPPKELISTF
Assay: co-IP; endogenous proteins in LN229 cell lysates; lysate with the indicated antibody at 4 °C overnight, Protein A/G beads 2 h; control cells of the NLRP6 KO comparisons included

- binding: no binding
Substance: endogenous AKT (human (endogenous in LN229))
